In article PMC11002876, “KcsA-Kv1.x chimeras with complete ligand-binding sites provide improved predictivity for screening selective Kv1.x blockers” (The Journal of Biological Chemistry, 2024):
No dose or concentration is given here for some results. Where a SMILES comes first, the peptide text is derived from it.

How the values were obtained:
Assay type in all cases: cell-based
human Kv1.2 = assay: Kv1.2 channel blocking, patch-clamp, literature data; conditions: rank by literature patch-clamp IC50 (refs 36, 49, 48)
human Kv1.1 = assay: Kv1.1 channel blocking, patch-clamp, literature data; conditions: rank by literature patch-clamp IC50 (refs 49, 48, 36)
human Kv1.3 = assay: Kv1.3 channel blocking, patch-clamp, literature data; conditions: rank by literature patch-clamp IC50 (refs 16, 47, 48)

Compound	Rank, Kv1.x blocking (Kv1.2) (human Kv1.2)	Rank, Kv1.x blocking (Kv1.1) (human Kv1.1)	Rank, Kv1.x blocking (Kv1.3) (human Kv1.3)
CC[C@H](C)[C@@H]1NC(=O)[C@@H](NC(=O)[C@H](CO)NC(=O)[C@@H](N)CCCNC(=N)N)CSSC[C@@H](C(=O)O)NC(=O)[C@H]([C@@H](C)O)NC(=O)CNC(=O)[C@@H]2CSSC[C@@H]3NC(=O)[C@H](CCC(N)=O)NC(=O)[C@H](Cc4ccccc4)NC(=O)[C@H](C)NC(=O)[C@H]([C@@H](C)O)NC(=O)[C@H](CSSC[C@H](NC(=O)[C@H](Cc4ccccc4)NC(=O)[C@H](CO)NC(=O)[C@H](CC(C)C)NC(=O)[C@H](CCCNC(=N)N)NC(=O)[C@H](Cc4ccc(O)cc4)NC(=O)[C@H](CCCCN)NC(=O)[C@H](CCSC)NC(=O)[C@H](CO)NC(=O)[C@H](Cc4c[nH]cn4)NC(=O)[C@H](CCCCN)NC3=O)C(=O)N[C@@H](CCCNC(=N)N)C(=O)N[C@@H](CCCCN)C(=O)N[C@@H]([C@@H](C)O)C(=O)N2)NC(=O)[C@H](CCCNC(=N)N)NC(=O)[C@H](CO)NC(=O)[C@H](CCCCN)NC(=O)[C@@H]2CCCN2C(=O)[C@H]([C@@H](C)CC)NC(=O)[C@H]([C@@H](C)O)NC(=O)[C@H](CC(=O)O)NC1=O [ShK, Stichodactyla toxin]	2	1	
CC[C@H](C)[C@@H]1NC(=O)CNC(=O)[C@H](Cc2ccccc2)NC(=O)[C@H](CCC(N)=O)NC(=O)[C@H](C)NC(=O)[C@H](CCCCN)NC(=O)[C@@H]2CSSC[C@@H](C(=O)N[C@@H](Cc3ccc(O)cc3)C(=O)N3CCC[C@H]3C(=O)N[C@@H](Cc3c[nH]cn3)C(=O)O)NC(=O)[C@H](CCCCN)NC(=O)[C@@H]3CSSC[C@H](NC(=O)[C@H](CCC(N)=O)NC(=O)[C@H](CCCCN)NC(=O)[C@@H]4CCCN4C(=O)[C@H](CO)NC(=O)[C@H]([C@@H](C)O)NC(=O)[C@@H](NC(=O)[C@H](CCCCN)NC(=O)[C@@H](NC(=O)[C@H](CC(=O)O)NC(=O)[C@@H](NC(=O)[C@@H](NC(=O)[C@@H](N)[C@@H](C)O)C(C)C)[C@@H](C)CC)C(C)C)CSSC[C@H](NC(=O)[C@H](CCCCN)NC(=O)[C@H](C)NC(=O)CNC(=O)[C@H](C)NC(=O)[C@H](CCCNC(=N)N)NC1=O)C(=O)N[C@@H](CCSC)C(=O)N[C@@H](CC(N)=O)C(=O)NCC(=O)N[C@@H](CCCCN)C(=O)N3)C(=O)N[C@@H](CC(C)C)C(=O)N1CCC[C@H]1C(=O)N1CCC[C@H]1C(=O)N2 [HgTx1, Hongotoxin-1] (HELM PEPTIDE1{T.V.I.D.V.K.C.T.S.P.K.Q.C.L.P.P.C.K.A.Q.F.G.I.R.A.G.A.K.C.M.N.G.K.C.K.C.Y.P.H}$PEPTIDE1,PEPTIDE1,7:R3-29:R3|PEPTIDE1,PEPTIDE1,13:R3-34:R3|PEPTIDE1,PEPTIDE1,17:R3-36:R3$$$V2.0; N-terminus and C-terminus assumed)			2
CC[C@H](C)[C@@H]1NC(=O)[C@@H]2CSSC[C@H](NC(=O)[C@H](CO)NC(=O)[C@@H](N)C(C)C)C(=O)N[C@@H]([C@@H](C)O)C(=O)NCC(=O)N[C@@H](CO)C(=O)N[C@@H](CCCCN)C(=O)N[C@@H](CC(=O)O)C(=O)N[C@@H](CSSC[C@@H](C(=O)N[C@@H](CCCCN)C(=O)N[C@H]3CSSC[C@@H](C(N)=O)NC(=O)CNC(=O)[C@H](Cc4ccc(O)cc4)NC3=O)NC(=O)[C@H](CO)NC(=O)[C@H](CCCCN)NC(=O)[C@H](CC(N)=O)NC1=O)C(=O)N[C@@H](Cc1ccc(O)cc1)C(=O)N[C@@H](C)C(=O)N1CCC[C@H]1C(=O)N[C@H]1CSSC[C@H](NC(=O)CNC(=O)[C@H]([C@@H](C)O)NC(=O)[C@H](CCC(N)=O)NC(=O)[C@H](CCCCN)NC(=O)[C@H](CCCNC(=N)N)NC1=O)C(=O)N1CCC[C@H]1C(=O)N[C@@H](CC(N)=O)C(=O)N[C@@H](C)C(=O)N[C@@H](CCCCN)C(=O)N2 [MTX, Maurotoxin] (HELM PEPTIDE1{V.S.C.T.G.S.K.D.C.Y.A.P.C.R.K.Q.T.G.C.P.N.A.K.C.I.N.K.S.C.K.C.Y.G.C.[am]}$PEPTIDE1,PEPTIDE1,3:R3-24:R3|PEPTIDE1,PEPTIDE1,9:R3-29:R3|PEPTIDE1,PEPTIDE1,13:R3-19:R3|PEPTIDE1,PEPTIDE1,31:R3-34:R3$$$V2.0; N-terminus and C-terminus assumed)	1	3	
CC[C@H](C)[C@H](NC(=O)[C@H](C)NC(=O)[C@H](C)NC(=O)[C@H](C)N)C(=O)N[C@@H](CO)C(=O)N[C@H]1CSSC[C@@H]2NC(=O)[C@H](CCCCN)NC(=O)CNC(=O)[C@H](CC(N)=O)NC(=O)[C@H](CCCCN)NC(=O)[C@@H]3CSSC[C@@H](C(N)=O)NC(=O)[C@H](Cc4ccc(O)cc4)NC(=O)[C@H](Cc4ccc(O)cc4)NC(=O)[C@@H]4CSSC[C@H](NC(=O)[C@H](CCCCN)NC(=O)[C@@H]5CCCN5C(=O)[C@@H]5CCCN5C(=O)[C@H](CSSC[C@H](NC(=O)[C@H](CCCCN)NC(=O)[C@H](CCCNC(=N)N)NC(=O)[C@H](CC(N)=O)NC(=O)[C@H](CCSC)NC2=O)C(=O)N[C@@H](CCCCN)C(=O)N4)NC(=O)[C@H](CCC(=O)O)NC(=O)[C@@H]2CCCN2C(=O)[C@H](CO)NC(=O)CNC(=O)[C@H](C(C)C)NC1=O)C(=O)N[C@@H](CCCNC(=N)N)C(=O)N[C@@H](C)C(=O)N[C@@H](CCC(N)=O)C(=O)NCC(=O)N3 [Vm24, Vm24 toxin]			1
CC[C@H](C)[C@H](NC(=O)[C@H](CCC(=O)O)NC(=O)[C@@H](NC(=O)CN)C(C)C)C(=O)N[C@@H](CC(N)=O)C(=O)N[C@H](C(=O)N[C@@H](CCCCN)C(=O)N[C@H]1CSSC[C@@H]2NC(=O)[C@H](CCCCN)NC(=O)CNC(=O)[C@H](Cc3ccccc3)NC(=O)[C@H](CCCNC(=N)N)NC(=O)[C@H](CCSC)NC(=O)CNC(=O)[C@H](C)NC(=O)[C@H](CC(=O)O)NC(=O)[C@H](CCCCN)NC(=O)[C@@H]3CSSC[C@@H](C(=O)N[C@H](C(=O)N4CCC[C@H]4C(=O)N[C@@H](CCCCN)C(=O)O)[C@@H](C)O)NC(=O)[C@H](Cc4c[nH]cn4)NC(=O)[C@H](CSSC[C@H](NC(=O)[C@H](CCC(N)=O)NC(=O)[C@@H]4CCCN4C(=O)[C@H](CO)NC(=O)CNC(=O)[C@H](CO)NC1=O)C(=O)N[C@@H](CC(C)C)C(=O)N[C@@H](CCCCN)C(=O)N1CCC[C@H]1C(=O)N3)NC(=O)[C@H](CCCCN)NC(=O)[C@H](CCCNC(=N)N)NC(=O)[C@H](CC(N)=O)NC(=O)[C@H](CCSC)NC2=O)C(C)C [KTX1, Kaliotoxin-1]	3	2	3
